Counter-ions that a name gives are not always drawn. ± gives the standard deviation of the averaged measurements. The list shows a part of the results. Single values are uncertain here, since repeats match poorly.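 Cells were counted by imaging DAPI-stained nuclei, and cells lacking phalloidin-stained cytoplasm were excluded as dead. Each well's count was divided by the median count of the vehicle wells on the same plate, and values were averaged over two replicate plates.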
Test system: OVCAR8
Experiment: cell count relative to DMSO vehicle (fold change); higher = more surviving senescent cells (less killing)
Settings: senescence inducer: cisplatin 10 µM 48 h, then 6 d recovery (CP senescent), exposure time 24 h

| SMILES | cell count (compound dose 1 µM) | cell count (compound dose 5 µM) |
| --- | --- | --- |
| Cc1cc(Cl)ccc1OCCCC(=O)NO [Droxinostat] | 0.886 ± 0.083 | 0.418 ± 0.2 |
| O=C(c1ccc(/C=C/c2n[nH]c3ccccc23)cc1)N1CCNCC1 | 1.43 ± 0.24 | 1.38 ± 0.15 |
| C/C(=C\C(=O)Nc1ccccc1C(=O)O)c1ccc2ccccc2c1 | 1.07 ± 0.28 | 1.19 ± 0.092 |
| O=C1c2ccccc2-c2nc3nnnn3nc21.O=C1c2ccccc2-c2nn3nnnc3nc21 | 0.0485 ± 0.018 | 0.0595 ± 0.016 |
| Oc1cc2c(cc1O)CN(C(=S)NCCc1ccc(Cl)cc1)CCC2 [Capsazepine] | 1.21 ± 0.13 | 0.932 ± 0.086 |
| CC(=O)NC1=NN(C(C)=O)C(C)(c2ccccc2)S1 (racemic) [K858 (Racemic)] | 1.16 ± 0.073 | 1.089 ± 0.0021 |
| O=C(O)COc1ccccc1C(Nc1ccccn1)c1cc(Cl)c2cccnc2c1O (centres undefined) | 0.585 ± 0.24 | 0.805 ± 0.022 |
| O=C1CCC[C@@H]2[C@H]3CCC[N+]4([O-])CCC[C@@H](CN12)[C@@H]34 (some centres undefined) [Oxymatrine] | 1.03 ± 0.011 | 0.614 ± 0.075 |
| Cc1c(C)c2c(c(C)c1O)CCC(C)(C(=O)O)O2 (centres undefined) | 0.803 ± 0.044 | 0.925 ± 0.26 |
| CC[C@H](C)C(=O)O[C@H]1C[C@@H](C)C=C2C=C[C@H](C)[C@H](CC[C@@H]3C[C@@H](O)CC(=O)O3)[C@H]21 [Lovastatin] | 0.903 ± 0.1 | 0.459 ± 0.12 |
| O=c1cc(-c2ccccc2)oc2cc(O)c(O)c(O)c12 | 1.08 ± 0.28 | 0.843 ± 0.057 |
| CCN(CC)CCCNc1cc2nc3n(c(=O)c2cc1F)CC/C3=C\c1ccc(C(C)C)cc1 | 1.14 ± 0.18 | 1.13 ± 0.041 |
| O=C(O[C@@H]1O[C@@H]2COC(=O)c3cc(O)c(O)c(O)c3-c3c(cc(O)c(O)c3O)C(=O)O[C@H]([C@H]1O)[C@@H]2O)c1cc(O)c(O)c(O)c1 [Corilagin] | 1.2 ± 0.18 | 0.947 ± 0.052 |
| COC(=O)Nc1ccc(-c2nc(N3CCOCC3)c3cnn(C4CCN(C(=O)OC)CC4)c3n2)cc1 | 1.08 ± 0.16 | 0.826 ± 0.13 |
| C[C@H](CC(=O)C[C@@H](C)[C@H]1C[C@H](O)[C@@]2(C)C3=C(C(=O)C[C@]12C)[C@@]1(C)CCC(=O)C(C)(C)[C@@H]1C[C@@H]3O)C(=O)O [Ganoderic acid A] | 1.11 ± 0.019 | 0.832 ± 0.053 |
| COc1cc([C@H]2C(C#N)=C(N)Oc3c2ccc(N)c3N)cc(Br)c1OC [Crolibulin] | 0.874 ± 0.075 | 0.787 ± 0.1 |

Record cards, from the list above. Order of values: cell count (compound dose 1 µM)	cell count (compound dose 5 µM)
CC(=O)NC1=NN(C(C)=O)C(C)(c2ccccc2)S1 (racemic) [K858 (Racemic)] is listed with 1.16 ± 0.073	1.089 ± 0.0021
Cc1c(C)c2c(c(C)c1O)CCC(C)(C(=O)O)O2 (centres undefined) is listed with 0.803 ± 0.044	0.925 ± 0.26

The results go on:

| SMILES | cell count (compound dose 1 µM) | cell count (compound dose 5 µM) |
| --- | --- | --- |
| CC(C)n1c(/C=C/C(O)CC(O)CC(=O)O)c(-c2ccc(F)cc2)c2ccccc21 (centres undefined) [Fluvastatin (sodium)] | 1.13 ± 0.21 | 0.583 ± 0.14 |
| COc1ccc2c(c1)-c1nn(CCCN(C)C)c3ccc([N+](=O)[O-])c(c13)N2 [Pyrazoloacridine] | 1.21 ± 0.052 | 0.955 ± 0.26 |
| O=C(O)c1cc(=O)cc(C(=O)O)o1 [Chelidonic acid] | 0.939 ± 0.0099 | 0.663 ± 0.22 |
| NC(N)=NC(=O)c1nc(Cl)c(N2CCCCCC2)nc1N [5-(N,N-Hexamethylene)-amiloride] | 0.853 ± 0.024 | 0.692 ± 0.2 |
| C[C@H](CCC(=O)NCC(=O)O)[C@H]1CC[C@H]2[C@@H]3[C@H](O)C[C@@H]4C[C@H](O)CC[C@]4(C)[C@H]3CC[C@]12C [Glycochenodeoxycholic acid (sodium salt)] | 0.956 ± 0.13 | 0.812 ± 0.19 |
| C[C@H](CCC(=O)NCC(=O)O)[C@H]1CC[C@H]2[C@@H]3[C@H](O)C[C@@H]4C[C@H](O)CC[C@]4(C)[C@H]3CC[C@]12C [Glycochenodeoxycholic acid] | 1.13 ± 0.18 | 0.599 ± 0.45 |
| CC(C)(C)C(=O)N1N=CC[C@H]1c1ccccc1 | 1.17 ± 0.09 | 0.71 ± 0.16 |
| COc1cc(N2CCC(N)CC2)ccc1Nc1ncc(Cl)c(-c2c[nH]c3ccccc23)n1 | 0.882 ± 0.096 | 0.45 ± 0.052 |
| Nc1[nH]nc2nnc(-c3c(-c4ccccc4)nn4ccccc34)cc12 | 1.08 ± 0.12 | 0.961 ± 0.24 |
| Cc1ccc(NC(=O)c2cccc(N(C)C)c2)cc1NC(=O)c1ccc(O)cc1 | 0.838 ± 0.061 | 0.851 ± 0.098 |
| O=C1NCCc2[nH]c(-c3ccncc3)cc21 | 1.28 ± 0.081 | 0.872 ± 0.2 |
| CCCCOc1ccc(CC/C=C2\SC(=O)N(CCN)C2=O)cc1 [K145 (hydrochloride)] | 0.982 ± 0.18 | 0.887 ± 0.026 |
| O=C(CCCCCCC(=O)Nc1ccccc1)NO | 0.716 ± 0.11 | 0.366 ± 0.031 |
| O=C(/C=C/c1ccc(O)c(O)c1)c1ccc(O)cc1O [Butein] | 1.09 ± 0.12 | 1.18 ± 0.15 |
| COc1ccc(CN(C(=O)Cc2cccs2)c2cc(OC)c(OC)c(OC)c2)cc1 | 0.665 ± 0.066 | 0.642 ± 0.3 |
| COc1cc2/c(=N/c3ccc(Br)cc3F)nc[nH]c2cc1OCC1CCN(C)CC1 [Vandetanib] | 1.12 ± 0.11 | 1.04 ± 0.02 |
